According to article PMC7229206, “Split Intein-Mediated Protein Ligation for detecting protein-protein interactions and their inhibition” (Nature Communications, 2020):
No constants are given. Whether binding was seen depends on the method and setting. Binding seen in cells or lysates may run through a third protein. Some results given as binding are weak or reduced against the parent protein; the word gives no strength. One block for each molecule: values may come before it.

By UniProt entry, the sequences of proteins in these tests, tags left out. Residues count along the entry.
UniProt P49821, residues 21-464: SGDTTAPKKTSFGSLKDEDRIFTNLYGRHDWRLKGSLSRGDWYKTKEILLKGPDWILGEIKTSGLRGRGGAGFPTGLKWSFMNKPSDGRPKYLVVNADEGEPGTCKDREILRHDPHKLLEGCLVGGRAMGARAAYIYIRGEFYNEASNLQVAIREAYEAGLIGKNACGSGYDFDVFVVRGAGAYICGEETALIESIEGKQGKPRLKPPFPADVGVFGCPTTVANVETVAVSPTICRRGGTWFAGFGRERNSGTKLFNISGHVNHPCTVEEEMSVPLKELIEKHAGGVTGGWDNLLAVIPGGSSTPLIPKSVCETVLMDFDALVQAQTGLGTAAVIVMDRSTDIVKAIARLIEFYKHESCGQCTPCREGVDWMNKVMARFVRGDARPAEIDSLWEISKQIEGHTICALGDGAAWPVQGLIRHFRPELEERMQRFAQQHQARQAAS
UniProt P28482: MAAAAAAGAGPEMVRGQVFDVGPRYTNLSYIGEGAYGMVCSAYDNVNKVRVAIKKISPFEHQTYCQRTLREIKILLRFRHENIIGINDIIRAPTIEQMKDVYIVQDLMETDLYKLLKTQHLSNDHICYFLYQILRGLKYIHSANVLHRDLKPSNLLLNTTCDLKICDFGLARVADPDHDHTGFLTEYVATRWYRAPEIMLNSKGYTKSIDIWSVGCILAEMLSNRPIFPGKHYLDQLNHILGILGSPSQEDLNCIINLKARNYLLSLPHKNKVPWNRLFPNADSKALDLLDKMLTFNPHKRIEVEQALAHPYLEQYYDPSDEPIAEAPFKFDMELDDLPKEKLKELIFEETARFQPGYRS
UniProt Q3ZCQ8, residues 45-353: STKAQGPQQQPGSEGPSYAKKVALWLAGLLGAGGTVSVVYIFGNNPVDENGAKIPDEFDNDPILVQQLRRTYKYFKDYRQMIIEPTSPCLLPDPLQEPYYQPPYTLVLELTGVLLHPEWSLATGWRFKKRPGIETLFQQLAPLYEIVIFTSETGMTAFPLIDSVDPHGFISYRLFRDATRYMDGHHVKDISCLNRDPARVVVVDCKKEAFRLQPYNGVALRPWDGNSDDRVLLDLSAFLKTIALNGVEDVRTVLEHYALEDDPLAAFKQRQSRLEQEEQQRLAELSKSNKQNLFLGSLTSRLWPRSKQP
UniProt P31040, residues 43-664: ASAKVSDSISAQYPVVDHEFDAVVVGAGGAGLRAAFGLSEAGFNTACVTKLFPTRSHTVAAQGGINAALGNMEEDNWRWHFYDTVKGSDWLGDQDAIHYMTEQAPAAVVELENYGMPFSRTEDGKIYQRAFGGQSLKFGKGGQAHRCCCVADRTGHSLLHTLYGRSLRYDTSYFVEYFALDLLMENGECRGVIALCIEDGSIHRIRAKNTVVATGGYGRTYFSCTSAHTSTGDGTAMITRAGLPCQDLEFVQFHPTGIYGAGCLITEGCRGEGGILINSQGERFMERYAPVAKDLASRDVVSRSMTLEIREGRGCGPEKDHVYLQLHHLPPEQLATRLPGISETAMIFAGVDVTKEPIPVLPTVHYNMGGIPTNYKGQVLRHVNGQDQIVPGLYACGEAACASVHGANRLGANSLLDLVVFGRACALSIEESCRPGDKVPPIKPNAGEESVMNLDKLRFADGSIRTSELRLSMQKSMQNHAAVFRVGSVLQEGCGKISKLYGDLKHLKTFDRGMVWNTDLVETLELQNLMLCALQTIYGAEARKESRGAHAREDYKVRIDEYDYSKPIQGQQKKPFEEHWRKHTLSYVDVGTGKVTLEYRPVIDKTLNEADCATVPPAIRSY
UniProt P56181, residues 35-108: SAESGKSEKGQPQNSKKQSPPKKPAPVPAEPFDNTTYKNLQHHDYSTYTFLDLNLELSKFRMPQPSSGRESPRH

Assays:
[1] = molecular target: NDUFV1 (bait, IN format) (UniProt P49821); assay: split reporter; SIMPL with ELISA read-out: HEK 293 cells in 96- or 384-well plates, lysed in TNE buffer; spliced product captured on α-FLAG and detected with HRP-conjugated α-HA; signal normalised to bait expression; rapamycin doses for 30 min for FRB/FKBP1A; venetoclax or osimertinib given with tetracycline 6 h before assay for BAX/BCL2 and BAX/BCL2L1
[2] = molecular target: IN-fused MAPK1 (ERK2) (UniProt P28482); assay: split reporter; SIMPL of MAPK1 and ELK1 in cells stimulated with tetradecanoylphorbol acetate (TPA); read-out not told in the text (Supplementary Fig. 4d)
[3] = molecular target: TIMM50 (bait, IN format) (UniProt Q3ZCQ8); assay: split reporter; SIMPL with ELISA read-out: HEK 293 cells in 96- or 384-well plates, lysed in TNE buffer; spliced product captured on α-FLAG and detected with HRP-conjugated α-HA; signal normalised to bait expression; rapamycin doses for 30 min for FRB/FKBP1A; venetoclax or osimertinib given with tetracycline 6 h before assay for BAX/BCL2 and BAX/BCL2L1
[4] = molecular target: T1, PDHA1 (bait, IN format) (UniProt P08559); assay: as above
T1 sequence: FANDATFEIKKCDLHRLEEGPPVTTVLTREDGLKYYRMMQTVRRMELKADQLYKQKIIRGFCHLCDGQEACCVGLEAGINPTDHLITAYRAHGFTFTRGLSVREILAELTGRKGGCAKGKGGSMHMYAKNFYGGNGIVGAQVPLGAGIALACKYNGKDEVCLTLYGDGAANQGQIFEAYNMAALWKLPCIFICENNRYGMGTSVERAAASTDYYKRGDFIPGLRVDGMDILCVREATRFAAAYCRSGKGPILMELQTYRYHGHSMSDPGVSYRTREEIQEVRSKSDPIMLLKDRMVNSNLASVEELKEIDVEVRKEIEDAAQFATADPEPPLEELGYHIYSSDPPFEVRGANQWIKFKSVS

[5] = molecular target: T1, PDHA1 (bait, IN format); assay: condition: only PDHA1 and PDHB separately expressed in different cells and the two cell lysates mixed; split reporter; control of SIMPL ELISA: bait and prey expressed in separate cells, the two cell lysates mixed and assayed by ELISA
[6] = molecular target: SDHA (bait, IN format) (UniProt P31040); assay: split reporter; SIMPL with ELISA read-out: HEK 293 cells in 96- or 384-well plates, lysed in TNE buffer; spliced product captured on α-FLAG and detected with HRP-conjugated α-HA; signal normalised to bait expression; rapamycin doses for 30 min for FRB/FKBP1A; venetoclax or osimertinib given with tetracycline 6 h before assay for BAX/BCL2 and BAX/BCL2L1
[7] = molecular target: T2, ETFA (bait, IN format) (UniProt P13804); assay: as above
T2 sequence: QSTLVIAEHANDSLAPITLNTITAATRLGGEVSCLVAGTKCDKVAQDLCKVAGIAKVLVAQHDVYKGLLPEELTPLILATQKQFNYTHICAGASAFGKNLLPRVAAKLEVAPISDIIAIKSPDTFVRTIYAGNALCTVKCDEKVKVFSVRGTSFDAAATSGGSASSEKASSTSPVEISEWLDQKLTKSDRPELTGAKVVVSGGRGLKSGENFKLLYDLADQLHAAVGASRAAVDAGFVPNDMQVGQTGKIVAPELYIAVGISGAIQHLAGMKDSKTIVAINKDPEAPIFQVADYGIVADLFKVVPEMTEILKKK

binding [3]: binds
B2: TIMM23 (prey, IC or CIC format) (protein, UniProt O14925 1-209)
chain: MEGGGGSGNKTTGGLAGFFGAGGAGYSHADLAGVPLTGMNPLSPYLNVDPRYLVQDTDEFILPTGANKTRGRFELAFFTIGGCCMTGAAFGAMNGLRLGLKETQNMAWSKPRNVQILNMVTRQGALWANTLGSLALLYSAFGVIIEKTRGAEDDLNTVAAGTMTGMLYKCTGGLRGIARGGLTGLTLTSLYALYNNWEHMKGSLLQQSL

binding [4]: binds
binding [5]: no binding
B3: PDHB (prey, IC or CIC format) (protein, UniProt P11177 31-359)
chain: LQVTVRDAINQGMDEELERDEKVFLLGEEVAQYDGAYKVSRGLWKKYGDKRIIDTPISEMGFAGIAVGAAMAGLRPICEFMTFNFSMQAIDQVINSAAKTYYMSGGLQPVPIVFRGPNGASAGVAAQHSQCFAAWYGHCPGLKVVSPWNSEDAKGLIKSAIRDNNPVVVLENELMYGVPFEFPPEAQSKDFLIPIGKAKIERQGTHITVVSHSRPVGHCLEAAAVLSKEGVECEVINMRTIRPMDMETIEASVMKTNHLVTVEGGWPQFGVGAEICARIMEGPAFNFLDAPAVRVTGADVPMPYAKILEDNSIPQVKDIIFAIKKTLNI

binding [6]: binds
B4: SDHB (prey, IC or CIC format) (protein, UniProt P21912 29-280)
chain: AQTAAATAPRIKKFAIYRWDPDKAGDKPHMQTYEVDLNKCGPMVLDALIKIKNEVDSTLTFRRSCREGICGSCAMNINGGNTLACTRRIDTNLNKVSKIYPLPHMYVIKDLVPDLSNFYAQYKSIEPYLKKKDESQEGKQQYLQSIEEREKLDGLYECILCACCSTSCPSYWWNGDKYLGPAVLMQAYRWMIDSRDDFTEERLAKLQDPFSLYRCHTIMNCTRTCPKGLNPGKAIAEIKKMMATYKEKKASV

Further lines, the molecule ahead of its results:

Molecule: NDUFV3 (prey, IC or CIC format) (from UniProt P56181 35-108)
binding [1]: binds

B1: ELK1 (SIMPL prey) (protein, UniProt P19419 1-428)
chain: MDPSVTLWQFLLQLLREQGNGHIISWTSRDGGEFKLVDAEEVARLWGLRKNKTNMNYDKLSRALRYYYDKNIIRKVSGQKFVYKFVSYPEVAGCSTEDCPPQPEVSVTSTMPNVAPAAIHAAPGDTVSGKPGTPKGAGMAGPGGLARSSRNEYMRSGLYSTFTIQSLQPQPPPHPRPAVVLPSAAPAGAAAPPSGSRSTSPSPLEACLEAEEAGLPLQVILTPPEAPNLKSEELNVEPGLGRALPPEVKVEGPKEELEVAGERGFVPETTKAEPEVPPQEGVPARLPAVVMDTAGQAGGHAASSPEISQPQKGRKPRDLELPLSPSLLGGPGPERTPGSGSGSGLQAPGPALTPSLLPTHTLTPVLLTPSSLPPSIHFWSTLSPIAPRSPAKLSFQFPSSGSAQVHIPSISVDGLSTPVVLSPGPQKP
binding [2]: binds

B5: ETFB (prey, IC or CIC format) (protein, UniProt P38117 1-255)
chain: MAELRVLVAVKRVIDYAVKIRVKPDRTGVVTDGVKHSMNPFCEIAVEEAVRLKEKKLVKEVIAVSCGPAQCQETIRTALAMGADRGIHVEVPPAEAERLGPLQVARVLAKLAEKEKVDLVLLGKQAIDDDCNQTGQMTAGFLDWPQGTFASQVTLEGDKLKVEREIDGGLETLRLKLPAVVTADLRLNEPRYATLPNIMKAKKKKIEVIKPGDLGVDLTSKLSVISVEDPPQRTAGVKVETTEDLVAKLKEIGRI
binding [7]: binds
